Tested on: HDAC isoforms
Test: HDAC inhibition profiled over several HDAC isoforms (experimental)
Format: biochemical, human
Conditions: range of pIC50 over the profiled HDAC isoforms

Structure (SMILES): O=C(CCCCCCC(=O)Nc1ccccc1)NO [SAHA, octanedioic acid hydroxyamidephenylamide]
- Bioactivity range (ΔpIC50) DpIC50: 2.04

From US20160378912A1, “STRUCTURE-BASED MODELING AND TARGET-SELECTIVITY PREDICTION” (EPIGENETX, LLC, priority 2013, published 2016)
